Assays:
MDA-MB-453 [1] = test: drug sensitivity score (DSS), single agent (DSS (weighted AUC score)); higher = more sensitive (stronger viability decrease); extreme values may be limits of the assay; settings: BLU9931 0 nM; 72 h
How it was run: (§1)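 Compounds from the FIMM Oncology set were predispensed in singlicate at five 10-fold dilutions (10,000-fold range) on 384-well plates. Each well then received 2000 MDA-MB-453 cells in medium with or without an FGFR4 inhibitor (100 nM final) and was kept at 37 °C, 5% CO2. Cellular ATP was read with CellTiterGlo 2.0 after 72 h and normalised per plate to percent viability from control wells. The drug sensitivity score is a weighted area under a four-parameter logistic fit.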

MDA-MB-453 [2] = test: drug sensitivity score (DSS), in combination with BLU9931 (DSS (weighted AUC score)); higher = more sensitive (stronger viability decrease); extreme values may be limits of the assay; settings: BLU9931 100 nM; 72 h
How it was run: as §1

`C[C@@H]1C[C@H](N)C[C@H](c2ccncc2NC(=O)c2ccc(F)c(-c3c(F)cccc3F)n2)C1` [PIM-447] was tested, and the drug sensitivity score (MDA-MB-453 [1]) was 1.9 and the drug sensitivity score (MDA-MB-453 [2]) was 1.5.
